Results are given in words; binding and its absence hold for the method and conditions named. Some results given as binding are weak or reduced against the parent protein; the word gives no strength.
B1: antibody 992 (antibody, human IgG1, kappa, V domains shown)
VH: EVQLQQPGSELVRPGASVKLSCKASGYTFTSYWMHWVKQRPGQGLEWIGNIYPGSRSTNYDEKFKSKATLTVDTSSSTAYMQLSSLTSEDSAVYYCTRNGDYYVSSGDAMDYWGQGTSVTVSS
VL: DIQMTQTTSSLSASLGDRVTISCRTSQDIGNYLNWYQQKPDGTVKLLIYYTSRLHSGVPSRFSGSGSGTDFSLTINNVEQEDVATYFCQHYNTVPPTFGGGTKLEIKR
notes: Chimeric mouse/human IgG1 kappa; the VL entry includes the human kappa constant region
B2: antibody 1030 (antibody, human IgG1, kappa, V domains shown)
VH: EVQLVESGGGLVKPGGSLKLSCAASGFTFSSYALSWVRQTPERRLEWVASISGVGSTYFPDSVKGRFTMSRDNARNILYLQMSSLRSEDTAMYYCARGSDGYFYAMDYWGQGTSVTVSS
VL: DIVLTQSPASLAVSLGQRATISCRASKSVSTSGYSFMHWYQLKPGQPPKLLIYLASNLESGVPARFSGSGSGTDFTLNIHPVEEEDAATYYCQHSREFPLTFGGGTKLEIKR
notes: Chimeric IgG1 kappa
B3: antibody 1024 (antibody, human IgG1, kappa, V domains shown)
VH: QVQLQQPGAELVEPGGSVKLSCKASGYTFTSHWMHWVKQRPGQGLEWIGEINPSSGRNNYNEKFKSKATLTVDKSSSTAYMQFSSLTSEDSAVYYCVRYYGYDEAMDYWGQGTSVTVSS
VL: DIVMTQAAFSNPVTLGTSASISCRSSKSLLHSNGITYLYWYLQKPGQSPQLLIYQMSNLASGVPDRFSSSGSGTDFTLRISRVEAEDVGVYYCAQNLELPYTFGGGTKLEIKR
notes: Chimeric IgG1 kappa
B4: antibody 1254 (antibody, human IgG1, kappa, V domains shown)
VH: EVQLVESGGGLVKPGGSLKLSCAASGFAYSTYDMSWVRQTPEKRLEWVAYISSGGDAAYYPDTVKGRFTISRDNAKNTLYLQMSSLKSEDTAMYYCARSRYGNYGDAMDYWGQGTSVTVSS
VL: DVVMTQTPLSLPVSLGDQASISCRSSQSLVHSNGNTYLHWYLQKPGQSPKLLLYKVSNRFSGVPDRFSGSGSGTDFTLKISRVESEDLGVYFCSQNTHVYTFGGGTKLEIKR
notes: Chimeric IgG1 kappa; also called mAb 1254
B5: antibody 1229 (antibody, human IgG1, kappa, V domains shown)
VH: QVQLKESGPGLVAPSQSLSITCSVSGFSLTIYGVHWVRQPPGKGLEWLGVMWAGGNTDYNSALMSRLNISKDNSKSQVFLKVNSLQTDDTAMYYCTRDPDGYYVGWFFDVWGAGTTVTVSS
VL: DIVMTQSHKFMSTSVGDRVSITCKASQDVTNAVAWYQQKPGQSPKLLIYWASIRHTGVPDRFTGSRSGTDYTLTINSVQAEDLALYYCQQHYNTPLTFGAGTKLEIKR
notes: Chimeric IgG1 kappa

The binders below were run against T1, EGFRvIII (deletion mutant EGFR) (human, UniProt P00533 25-645, limits assumed) (assay: EGFRvIII ELISA (Example 1)).
T1 construct: also called deltaEGFR; rhEGFRvIII

binding, binds:
B1
B2
B3
B4
B5

— patent US20110135636A1 (SYMPHOGEN A S, published 2011)
